PubChem BioAssay AID1159584 – Peter MacCallum Cancer Centre – 2016
Aim: 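Knock-downs that harm CDH1-null cells more than parental MCF10A cells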 (primary screen). Cell system: human MCF10A breast epithelial cells, parental and CDH1-null. Reagents: siRNA against human genes. Read-out: 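ATP luminescence (CellTiter-Glo) viability per line relative to mean mock wells over all plates, and the ratio of CDH1-null to parental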. Scale: CDH1-null / parental viability ratio: higher = CDH1-null cells survive relatively better than parental; CDH1-null viability vs mock: higher = more viable CDH1-null cells. Units: CDH1-null viability vs mock in fraction of mock.
The whole screen tested about 18,000 reagents; shown is a random part of them. Reagents against one gene are numbered here. Not all columns of the deposit are shown. Reagent sequences are not shown. The record does not give: the amount of reagent, the time to read-out.

ZDHHC18: CDH1-null / parental viability ratio = 1.27; CDH1-null viability vs mock = 0.76
GNG3: CDH1-null / parental viability ratio = 0.96; CDH1-null viability vs mock = 0.75
CCND2: CDH1-null / parental viability ratio = 0.72; CDH1-null viability vs mock = 0.39
SERGEF: CDH1-null / parental viability ratio = 1.24; CDH1-null viability vs mock = 0.84
SPATA22: CDH1-null / parental viability ratio = 0.86; CDH1-null viability vs mock = 0.77
NUDT14: CDH1-null / parental viability ratio = 1.42; CDH1-null viability vs mock = 0.85
APBB1: CDH1-null / parental viability ratio = 1.36; CDH1-null viability vs mock = 0.76
SPG21: CDH1-null / parental viability ratio = 1.05; CDH1-null viability vs mock = 0.84
CFAP47 #1: CDH1-null / parental viability ratio = 1.08; CDH1-null viability vs mock = 0.56
CFAP47 #2: CDH1-null / parental viability ratio = 0.92; CDH1-null viability vs mock = 0.88
ATP6V1D: CDH1-null / parental viability ratio = 1; CDH1-null viability vs mock = 1.02
NHSL2 #1: CDH1-null / parental viability ratio = 0.95; CDH1-null viability vs mock = 1
NHSL2 #2: CDH1-null / parental viability ratio = 1.02; CDH1-null viability vs mock = 0.55
ING2: CDH1-null / parental viability ratio = 0.86; CDH1-null viability vs mock = 0.76
WDR20: CDH1-null / parental viability ratio = 1.11; CDH1-null viability vs mock = 0.71
HPGD: CDH1-null / parental viability ratio = 0.75; CDH1-null viability vs mock = 0.69
ZKSCAN3: CDH1-null / parental viability ratio = 1.03; CDH1-null viability vs mock = 1.02
BRD2: CDH1-null / parental viability ratio = 1.06; CDH1-null viability vs mock = 0.85
FDCSP: CDH1-null / parental viability ratio = 1.07; CDH1-null viability vs mock = 0.81
AIF1L: CDH1-null / parental viability ratio = 1.21; CDH1-null viability vs mock = 0.97
CCNB3: CDH1-null / parental viability ratio = 1.06; CDH1-null viability vs mock = 1.14
CCL28: CDH1-null / parental viability ratio = 1.06; CDH1-null viability vs mock = 0.66
ANGPTL4: CDH1-null / parental viability ratio = 1.03; CDH1-null viability vs mock = 0.92
IDH2: CDH1-null / parental viability ratio = 0.75; CDH1-null viability vs mock = 0.76
C1orf50: CDH1-null / parental viability ratio = 1.25; CDH1-null viability vs mock = 0.3
HROB: CDH1-null / parental viability ratio = 0.88; CDH1-null viability vs mock = 0.76
IAPP: CDH1-null / parental viability ratio = 1.11; CDH1-null viability vs mock = 0.52
PRKCG: CDH1-null / parental viability ratio = 0.96; CDH1-null viability vs mock = 0.98
ASXL2: CDH1-null / parental viability ratio = 1.06; CDH1-null viability vs mock = 0.86
JMJD8: CDH1-null / parental viability ratio = 0.86; CDH1-null viability vs mock = 0.64
UBE2H: CDH1-null / parental viability ratio = 1.04; CDH1-null viability vs mock = 0.71
SPMIP4: CDH1-null / parental viability ratio = 1.38; CDH1-null viability vs mock = 0.47
POSTN: CDH1-null / parental viability ratio = 1.17; CDH1-null viability vs mock = 1.02
STPG3: CDH1-null / parental viability ratio = 1.02; CDH1-null viability vs mock = 0.52
EEF1G: CDH1-null / parental viability ratio = 1.11; CDH1-null viability vs mock = 0.9
